Data on 33 compounds can be found in PubChem BioAssay AID1487 (National Center for Advancing Translational Sciences (NCATS), 2009).

Where “and” joins values, the source holds several entries; their conditions need not be identical. Equal values may be shown once. This is one part of the list. Shown are side measurements of this screen, not its main read-out; they come without a call. Most of these compounds were active or inconclusive in the main read-out, so they are no random draw. Potencies come from curve fits of mixed quality, noted in brackets.

This assay in a line: qHTS Assay for Modulators of Lamin A Splicing. The conditions noted are these: HeLa LMNA splicing GFP/RFP minigene ratio, 48 h. The text has this:
NCGC Assay Overview: Hutchinson-Gilford Progeria Syndrome (HGPS) is a pediatric premature aging disease caused by a spontaneous mutation in the lamin A/C (LMNA) gene. The mutation activates a cryptic splice site in the LMNA pre-mRNA which results in production of a pre-lamin A protein that cannot be processed properly. The mutant protein accumulates in the nucleus and negatively affects numerous cellular functions. Correction of the splicing defect in HGPS patient cells using a targeted oligonucleotide (exo11) leads to reversal of the cellular disease phenotypes. To identify small molecule modulators of aberrant LMNA splicing, a homogenous assay was constructed in HeLa cells that used a GFP containing minigene to report on correction of aberrant splicing in lamin A and a RFP (DsRed2) to report on cell viability, uniformity and nonspecific effects on the assay signal. This assay was adapted to laser-scanning microplate cytometry (Acumen, TTP Labtech) where miniaturization of the assay to a 1,536-well plate format was possible. References: Bowen, W. P.; Wylie, P. G. Application of Laser-Scanning Fluorescence Microplate Cytometry in High Content Screening. Assay Drug Dev Technol 2006;4:209-221. Scaffidi P, Misteli T. Reversal of the cellular phenotype in the premature aging disease Hutchinson-Gilford progeria syndrome. Nat.
NCGC Assay Protocol Summary: Reagents/Controls: Stable clones expressing DsRed2 and lamin A-EGFP were generated by Cell and Molecular Technologies in S3 HeLa cells. HeLa cells were prepared for the assay when they were 70-90% confluent. The cells were counted and resuspended in Opti-MEM I (no phenol red; Gibco), 2% FBS, 1% penicillin/ streptomycin (Gibco) at concentration of 120 cells/uL concentration. The suspension was passed through a Falcon basket filter with pore size 40um (Beckton Dickson). Control titrations: column […] 1536-well plate contained a sixteen point titration (1:2 dilutions) in duplicate of ancitabine (Sigma: A8598) beginning at 40 uM final concentration. Column 2 contained a sixteen point titration (1:2 dilutions) of cycloheximide beginning at 1.4 mM final concentration. Column 3 contained ancitabine at 40 uM and column 4 contained was the vehicle control (0.5% DMSO final concentration). Assay Steps: 5 uL of HeLa cells were plated in Aurora LoBase black clear bottom (cyclic-olefin polymer) 1536-well plates at a final density of 600 cells/well. Controls and library compounds were added with a 1536-well pin array using the Kalypsys pin-tool. The plates were then incubated for 48 hrs in a cell-culture incubator (37 °C; 5% CO2, 98% humidity). Following incubation the plates were read on the Acumen Explorer using the 488 nm laser. Data was collected on objects between 10 and 100 um in size. Cell objects were defined by a 15 um width x 10 um depth filter. The ratio of the total object intensity in PMT1 (500-530 nm emission; GFP) over PMT3 (575-640 nm emission; RFP) was calculated for analysis. Keywords: NIH Roadmap, MLSCN, MLI, MLSMR, qHTS, NCGC, lamin A, Progeria, RNA splicing.
On the technique in general: Quantitative high-throughput screening tests each substance at several concentrations.

The mark [1] stands for this setting: measured here: RFP viability control channel.
The mark [2] stands for this setting: measured here: GFP splicing reporter channel.

Turning to `Cn1cnnc1SCC(=O)NCCc1ccc(Cl)cc1Cl`, the AC50 (usually the concentration at which the activity in the assay is half-maximal) under setting [1] is 7.08 µM [falling, partial curve, poor fit]. `CCN(CC)S(=O)(=O)c1ccc2oc(C(=O)NCC3COc4ccccc4O3)c(C)c2c1` (stereo not drawn): the AC50 under setting [1] was 10 µM [rising, partial curve]. For `CCn1c2c(c3cc(Br)ccc31)CCC/C2=N\O`, under setting [2], the AC50 was 15.8 µM [rising, partial curve, poor fit]. Still for that read-out and setting: next, `CCOc1ccc2[nH]cc(C(=O)N3CCN(CC)CC3)c(=O)c2c1`: 11.2 µM [rising, single point]. `Cc1ccccc1C(=O)Nc1ccc(-c2nc3ccc(C(=O)c4ccccc4)cc3[nH]2)cc1`: the AC50 is, setting by setting: under setting [2], 2.82 µM [falling, full curve, poor fit]; under setting [1], 2.82 µM [falling, full curve, poor fit]. As to `Cc1cc([N+](=O)[O-])ccc1NC(=O)c1cccc(NC(=O)C(C)C)c1`, under setting [1], the AC50 was 0.00794 µM [falling, full curve, poor fit]. For `CS(=O)(=O)OCCCCOS(C)(=O)=O`, the AC50 under setting [2] is 0.000891 µM [falling, full curve, poor fit].

For `O=C(CNC(=O)c1ccc(F)cc1)N/N=C/c1cc(Br)ccc1OCc1ccccc1`, the AC50 runs as follows: under setting [2], 8.91 µM [rising, partial curve]; under setting [1], 12.6 µM [rising, partial curve]. Consider `Cc1ccc(S(=O)(=O)N(CC(=O)NCCSc2ccccn2)c2ccc(C)c(C)c2)cc1`, for which the AC50 under setting [1] is 31.6 µM [rising, single point]. As for `O=C(CNCCO)N1CCc2ccccc21`, the AC50 is, setting by setting: under setting [2], 35.5 µM [falling, single point]; under setting [1], 35.5 µM [falling, single point].

In the case of `Cc1cc(C)n(-c2ccc(C(=O)OCC(=O)Nc3cc(Cl)ccc3[N+](=O)[O-])cc2)n1`, the AC50 is, setting by setting: under setting [2], 20 µM [rising, partial curve, poor fit]; under setting [1], 7.94 µM [rising, partial curve, poor fit]. For `CCc1nn2c(=O)cc(COC(=O)c3cccc(NC(=O)c4ccccc4Cl)c3)nc2s1`, the AC50 under setting [1] is 35.5 µM [rising, single point]. As for `CCOC(=O)c1c(C)n(C)c2ccc(O)c(CN(C)C)c12`, the AC50 by setting is: under setting [2], 6.31 µM [falling, single point]; under setting [1], 5.62 µM [falling, single point].

In the case of `COc1ccc(-c2cc(-c3cc(C)ccc3O)[nH]n2)cc1`, the AC50 runs as follows: under setting [2], 2.82 µM [rising, partial curve, poor fit]; under setting [1], 15.8 µM [rising, partial curve].

Regarding `O=C(NNc1nc2ccc(Cl)cc2s1)c1cc(-c2cccs2)nc2ccccc12`, the AC50 under setting [1] is 11.2 µM [rising, partial curve].

As to `O=C(Nc1nc(-c2ccccc2)cs1)c1ccccc1NS(=O)(=O)c1ccc(F)cc1`, the AC50 is 3.55 µM [rising, single point] under setting [2] and 3.55 µM [rising, partial curve] under setting [1]. As for `Cc1cc2ncn(CCCCOc3ccccc3)c2cc1C`, the AC50 reads like this: under setting [2], 35.5 µM [rising, single point]; under setting [1], 17.8 µM [rising, single point]. As to `CCCCN(CCCC)S(=O)(=O)c1ccc(C(=O)Nc2nnc(COC)o2)cc1`, the AC50 by setting is: under setting [2], 4.47 µM [falling, partial curve]; under setting [1], 31.6 µM [falling, single point].

As for `Cc1nonc1OCCNCCNc1ccc([N+](=O)[O-])cc1Cl`, under setting [2], the AC50 was 7.94 µM [falling, partial curve, poor fit]. Regarding `COc1ccc(OC)c(NC(=O)CN(Cc2ccc(Cl)cc2)S(C)(=O)=O)c1`, the AC50 under setting [1] was 7.08 µM [falling, full curve, poor fit]. Take `COCCCNC(=O)c1oc2c(c1C)-c1nn(Cc3cccc(Cl)c3)cc1CC2`: the AC50 reads like this: under setting [2], 35.5 µM [falling, partial curve, poor fit]; under setting [1], 35.5 µM [falling, partial curve]. With `O=C(COc1cccc(Cl)c1)Nc1ccc2c(c1)CCC2`, the AC50 by setting is: under setting [2], 14.1 µM [rising, single point]; under setting [1], 25.1 µM [rising, single point]. As for `O=C(/C=C/c1ccc(O)cc1)c1ccc(O)cc1O`, the AC50 by setting is: under setting [2], 6.31 µM [falling, full curve, poor fit]; under setting [1], 12.6 µM [rising, partial curve, poor fit] and 6.31 µM [falling, full curve, poor fit]. As for `COc1ccc(C2(C(N)=O)CCCCC2)cc1OC`, the AC50 by setting is: under setting [2], 1 µM [rising, partial curve, poor fit]; under setting [1], 22.4 µM [rising, single point]. In the case of `COc1ccc(C(=O)NCC(O)COc2ccc(C(C)(C)C)cc2)cc1[N+](=O)[O-]` (stereo not drawn), the AC50 is, setting by setting: under setting [2], 15.8 µM [rising, single point]; under setting [1], 35.5 µM [rising, single point]. As for `O=C(N/C=C\c1ccccc1)NCc1ccc(Cl)cc1`, the AC50 under setting [1] was 3.16 µM [falling, partial curve, poor fit]. `COCn1ccnc1C(O)(c1ccc(OC)cc1)c1ccc(OC)cc1`: under setting [2], the AC50 was 0.112 µM [falling, partial curve].

As to `CC(C)OCCCNC(=O)Cc1ccc(Br)cc1`, the AC50 under setting [1] was 0.0158 µM [falling, full curve, poor fit]. The same measure, in the same setting: with `Cn1c2c(c(=O)n(C)c1=O)C(C(F)(F)F)(C(F)(F)F)N=C(c1ccc(Cl)cc1)N2` the figure was 11.2 µM [falling, partial curve]. Take `NS(=O)(=O)c1cc(C(=O)NCCOc2ccccc2)c(Cl)cc1Cl`: the AC50 under setting [2] is 12.6 µM [rising, single point].

For `CCN(CC)C(=O)CSC1=N/C(=C/c2ccco2)C(=O)N1c1ccc(OC)c(Cl)c1`, under setting [1], the AC50 was 20 µM [rising, partial curve, poor fit]. In the case of `COc1ccccc1N1CCN(c2ncc(C(=O)N3CCN(c4cccc(Cl)c4)CC3)c3ccccc23)CC1`, the AC50 is, setting by setting: under setting [2], 5.62 µM [falling, single point]; under setting [1], 5.01 µM [falling, single point]. As for `COc1cc(OC)c(NC(=O)C2CCCN(c3ncnc4c3nc3n4CCCCC3)C2)cc1Cl` (stereo not drawn), under setting [2], the AC50 was 5.62 µM [falling, partial curve].
